Test results published in paper doi:10.1101/2023.01.12.523872.
Where a chain is given by its changes, count along the chain named. Results are given in words; binding and its absence hold for the method and conditions named. Binding seen in cells or lysates may run through a third protein. For part of these data: Binding can be weak; no strength is given. Where a sequence is shown, tags or fusion partners need not be part of it.

What was measured:
Assay in all cases: co-IP
Scs2-GFP-TM (S. pombe) = biological target: T1, Scs2-GFP-TM (S. pombe) (UniProt O60119)
T1 sequence: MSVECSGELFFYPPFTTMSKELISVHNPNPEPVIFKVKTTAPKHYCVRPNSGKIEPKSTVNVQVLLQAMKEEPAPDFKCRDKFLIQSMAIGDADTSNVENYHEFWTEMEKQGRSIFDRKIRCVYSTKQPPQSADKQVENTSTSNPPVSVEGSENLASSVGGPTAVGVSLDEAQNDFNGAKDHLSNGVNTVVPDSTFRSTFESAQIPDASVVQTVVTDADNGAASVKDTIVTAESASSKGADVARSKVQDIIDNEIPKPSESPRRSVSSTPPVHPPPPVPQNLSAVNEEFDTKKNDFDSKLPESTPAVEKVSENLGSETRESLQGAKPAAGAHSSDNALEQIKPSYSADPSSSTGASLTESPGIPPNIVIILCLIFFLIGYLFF

Scs22-GFP-TM (S. pombe) = biological target: T2, Scs22-GFP-TM (S. pombe) (UniProt Q10484)
T2 sequence: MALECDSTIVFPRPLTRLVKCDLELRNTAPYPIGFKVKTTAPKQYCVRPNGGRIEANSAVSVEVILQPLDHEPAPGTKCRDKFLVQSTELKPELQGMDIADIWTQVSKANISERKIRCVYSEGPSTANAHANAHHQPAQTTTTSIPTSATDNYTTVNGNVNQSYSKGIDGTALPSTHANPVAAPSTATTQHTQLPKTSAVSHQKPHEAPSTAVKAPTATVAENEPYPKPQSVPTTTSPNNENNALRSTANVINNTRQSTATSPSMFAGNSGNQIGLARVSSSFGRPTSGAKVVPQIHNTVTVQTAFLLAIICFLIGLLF

[1] = biological target: T3, Scs22^3KA-GFP-TM (S. pombe) (UniProt Q10484)
T3 sequence: T2 sequence with K36A, K38A, K43A

[2] = biological target: T4, Scs2^3KA-GFP-TM (S. pombe) (UniProt O60119)
T4 sequence: T1 sequence with K36A, K38A, K43A

Substance	binding (Scs2-GFP-TM (S. pombe))	binding (Scs22-GFP-TM (S. pombe))	binding [1]	binding [2]
Csr102, C-terminally tagged (S. pombe)	binds	binds	–	–
Pdr16, C-terminally tagged (S. pombe)	binds	no binding	no binding	no binding
